Test results as given in paper doi:10.1101/2021.06.22.449524.
No constants are given. Whether binding was seen depends on the method and setting. In cells and extracts the contact can be indirect. These calls come from enrichment with a bait or labelling near it, and not all partners need be listed. For some assays here: Where a sequence is shown, tags or fusion partners need not be part of it. Values belong to the molecule of their own block, whether it stands above or below them.

Amino acid sequences for entries named in this document (tags omitted).
UniProt O09106: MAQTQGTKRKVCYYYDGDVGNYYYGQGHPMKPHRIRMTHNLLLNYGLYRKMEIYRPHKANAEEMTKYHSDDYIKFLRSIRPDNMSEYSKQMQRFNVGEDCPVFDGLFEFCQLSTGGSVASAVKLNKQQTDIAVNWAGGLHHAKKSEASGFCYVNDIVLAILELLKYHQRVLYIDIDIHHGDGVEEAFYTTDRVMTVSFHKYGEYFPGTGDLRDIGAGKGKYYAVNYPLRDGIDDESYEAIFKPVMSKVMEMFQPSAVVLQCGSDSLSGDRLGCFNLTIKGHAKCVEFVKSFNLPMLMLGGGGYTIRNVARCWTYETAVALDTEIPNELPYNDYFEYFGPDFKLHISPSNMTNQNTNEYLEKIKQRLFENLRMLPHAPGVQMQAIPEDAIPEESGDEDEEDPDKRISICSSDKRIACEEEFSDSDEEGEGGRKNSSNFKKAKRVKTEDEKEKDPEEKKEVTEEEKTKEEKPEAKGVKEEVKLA
UniProt P70288: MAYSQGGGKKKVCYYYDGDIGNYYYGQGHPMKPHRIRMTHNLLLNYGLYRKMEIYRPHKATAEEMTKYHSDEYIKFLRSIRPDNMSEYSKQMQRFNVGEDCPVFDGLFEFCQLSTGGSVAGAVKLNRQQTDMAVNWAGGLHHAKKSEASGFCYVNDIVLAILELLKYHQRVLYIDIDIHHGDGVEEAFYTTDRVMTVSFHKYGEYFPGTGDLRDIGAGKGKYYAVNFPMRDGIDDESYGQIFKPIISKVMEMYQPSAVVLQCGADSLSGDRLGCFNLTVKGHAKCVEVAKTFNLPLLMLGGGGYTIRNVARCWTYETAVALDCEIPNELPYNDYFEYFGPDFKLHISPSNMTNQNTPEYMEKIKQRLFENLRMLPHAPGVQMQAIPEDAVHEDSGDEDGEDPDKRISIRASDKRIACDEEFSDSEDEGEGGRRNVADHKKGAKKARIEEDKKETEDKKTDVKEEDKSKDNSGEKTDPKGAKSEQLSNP

How the values were obtained:
[1] = target: T1, ZFP541-EGFP (zinc finger protein 541 with C-terminal EGFP, knock-in) (mouse (endogenous locus, knock-in, in testis)) (UniProt Q0GGX2); assay: affinity purification with mass spectrometry
T1 sequence: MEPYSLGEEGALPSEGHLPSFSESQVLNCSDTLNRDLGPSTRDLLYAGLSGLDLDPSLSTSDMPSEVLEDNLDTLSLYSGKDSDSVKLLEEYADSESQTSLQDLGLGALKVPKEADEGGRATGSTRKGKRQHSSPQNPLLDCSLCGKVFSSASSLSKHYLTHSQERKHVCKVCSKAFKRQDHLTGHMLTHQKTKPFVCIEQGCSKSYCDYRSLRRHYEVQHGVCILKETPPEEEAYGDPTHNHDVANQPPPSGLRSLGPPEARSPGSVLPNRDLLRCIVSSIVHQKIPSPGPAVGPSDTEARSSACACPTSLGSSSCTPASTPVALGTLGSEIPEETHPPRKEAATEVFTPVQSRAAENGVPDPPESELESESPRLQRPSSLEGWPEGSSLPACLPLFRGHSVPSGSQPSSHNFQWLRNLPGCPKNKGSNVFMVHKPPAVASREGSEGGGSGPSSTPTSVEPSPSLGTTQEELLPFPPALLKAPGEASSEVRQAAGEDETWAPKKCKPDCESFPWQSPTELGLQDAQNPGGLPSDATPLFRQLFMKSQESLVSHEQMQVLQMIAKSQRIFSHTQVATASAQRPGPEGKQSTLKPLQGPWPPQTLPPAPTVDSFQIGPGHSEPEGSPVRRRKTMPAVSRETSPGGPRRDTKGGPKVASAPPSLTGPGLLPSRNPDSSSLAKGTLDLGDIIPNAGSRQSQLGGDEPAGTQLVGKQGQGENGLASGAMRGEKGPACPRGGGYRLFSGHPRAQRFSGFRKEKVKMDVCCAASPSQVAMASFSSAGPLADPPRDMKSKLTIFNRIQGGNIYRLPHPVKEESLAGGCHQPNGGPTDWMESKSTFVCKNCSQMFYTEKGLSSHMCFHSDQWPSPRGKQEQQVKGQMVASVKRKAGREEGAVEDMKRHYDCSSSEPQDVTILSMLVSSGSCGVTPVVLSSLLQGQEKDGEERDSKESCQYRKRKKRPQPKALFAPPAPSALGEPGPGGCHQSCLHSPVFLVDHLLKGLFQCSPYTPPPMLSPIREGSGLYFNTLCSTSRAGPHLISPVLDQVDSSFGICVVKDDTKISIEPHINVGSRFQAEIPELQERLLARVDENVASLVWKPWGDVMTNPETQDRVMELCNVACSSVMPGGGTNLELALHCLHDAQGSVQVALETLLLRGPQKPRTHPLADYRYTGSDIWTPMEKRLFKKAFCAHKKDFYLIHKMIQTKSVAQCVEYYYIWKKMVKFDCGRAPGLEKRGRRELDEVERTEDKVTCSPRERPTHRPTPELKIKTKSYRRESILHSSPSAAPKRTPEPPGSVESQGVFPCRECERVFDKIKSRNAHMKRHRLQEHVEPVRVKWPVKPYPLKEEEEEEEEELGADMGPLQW

[2] = target: T2, potassium channel tetramerization domain containing 19 (KCTD19) (mouse (endogenous in testis)) (UniProt Q562E2); assay: affinity purification with mass spectrometry
T2 sequence: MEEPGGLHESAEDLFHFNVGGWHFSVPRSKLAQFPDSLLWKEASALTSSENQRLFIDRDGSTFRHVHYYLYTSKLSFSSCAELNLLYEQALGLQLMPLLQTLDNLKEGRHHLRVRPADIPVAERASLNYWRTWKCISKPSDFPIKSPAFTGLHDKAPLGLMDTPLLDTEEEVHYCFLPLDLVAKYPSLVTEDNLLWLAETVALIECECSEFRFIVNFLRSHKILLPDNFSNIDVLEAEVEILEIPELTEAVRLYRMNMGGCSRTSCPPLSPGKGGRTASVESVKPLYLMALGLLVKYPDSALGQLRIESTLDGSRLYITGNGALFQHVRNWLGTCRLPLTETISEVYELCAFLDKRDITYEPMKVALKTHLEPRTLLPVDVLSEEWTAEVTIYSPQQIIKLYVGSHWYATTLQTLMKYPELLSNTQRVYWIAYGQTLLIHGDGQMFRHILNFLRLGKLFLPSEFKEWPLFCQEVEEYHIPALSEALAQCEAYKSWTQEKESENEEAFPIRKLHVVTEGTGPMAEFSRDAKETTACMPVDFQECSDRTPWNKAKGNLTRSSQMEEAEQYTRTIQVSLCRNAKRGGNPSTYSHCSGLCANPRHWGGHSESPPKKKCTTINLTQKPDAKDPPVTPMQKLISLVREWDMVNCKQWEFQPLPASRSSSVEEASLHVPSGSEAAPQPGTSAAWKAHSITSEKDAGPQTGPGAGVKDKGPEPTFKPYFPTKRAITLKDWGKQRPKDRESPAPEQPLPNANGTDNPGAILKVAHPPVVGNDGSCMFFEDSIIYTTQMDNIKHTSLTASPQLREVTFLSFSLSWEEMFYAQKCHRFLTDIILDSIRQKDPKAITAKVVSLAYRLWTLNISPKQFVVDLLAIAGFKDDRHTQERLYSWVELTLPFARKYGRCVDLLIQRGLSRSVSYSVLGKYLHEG

binding [1]: binds
Molecule: histone deacetylase 1 (HDAC1) (from UniProt O09106 1-482)

binding [1]: binds
B2: deoxynucleotidyltransferase terminal-interacting protein 1 (DNTTIP1) (protein, UniProt Q99LB0 1-328)
chain: MGATGDTEQPRGPGGAERGGLELGDAGAAGQPVLTNPWNIMIKHRQVQRRGRRSQMTTSFTDPAISMDLLRAVLQPSINEEIQGVFNKYMKFFQKAALNVRDNVGEEVDAEQLIQEACRSCLEQAKLLFSDGEKVIPRLAHELPGIKRGRQAEEESHRGSPIPKKRKGRPPGHVLSNDRAAAGMVWKQKSCEPIRREGPKWDPARLNESTTFVLGSRANKALGMGGTRGRIYIKHPHLFKYAADPQDKHWLAEQHHMRATGGKMAYLLIEEDIRDLAASDDYRGCLDLKLEELKSFVLPSWMVEKMRKYMETLRTENEHRAAEAPPQT

The remaining lines, values behind:

Molecule: histone deacetylase 2 (HDAC2) (from UniProt P70288 1-488)
binding [1]: binds

B1: zinc finger protein 541 (ZFP541) (protein, UniProt Q0GGX2 1-1363)
chain: T1 sequence
binding [2]: binds

B3: potassium channel tetramerization domain containing 19 (KCTD19) (protein, UniProt Q562E2 1-927)
chain: T2 sequence
binding [1]: binds
